Laboratory results taken from publication PMC10058238, “Mechanism of sphingolipid homeostasis revealed by structural analysis of Arabidopsis SPT-ORM1 complex” (Science Advances, 2023).
Results are given in words; binding and its absence hold for the method and conditions named. A result given as binding can be weak or reduced; the word gives no strength. For some assays here: Binding seen in cells or lysates may run through a third protein.

The chains behind the UniProt entries cited, without tags or fusion partners. Where a name states a change or a piece, a line headed by the entry shows the natural chain unless it says otherwise.
UniProt A8MSB8: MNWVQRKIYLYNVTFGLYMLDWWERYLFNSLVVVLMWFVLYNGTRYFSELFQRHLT

Key:
[1] = molecular target: Flag-tagged Arabidopsis SPTssa (Arabidopsis) (UniProt A8MSB8); assay: cryo-EM structure; single-particle cryo-EM of the coexpressed, purified complexes (WT, ORM1-N17A, LCB2a-ΔN5) at ~18 mg/ml in 25 mM Hepes pH 7.5, 150 mM NaCl, 0.01% GDN; the LCB2a-ΔN5 sample preincubated with 0.5 mM PLP, 10 mM L-serine and 1 mM S-CoA; both purified
[2] = molecular target: Flag-tagged Arabidopsis SPTssa (Arabidopsis) (UniProt A8MSB8); assay: co-purification (anti-Flag affinity resin, then size exclusion chromatography); subunits coexpressed in HEK293F; membranes solubilised with 1% GDN; captured by the N-terminal Flag tag of SPTssa, eluted with Flag peptide, Superose 6 in 25 mM Hepes pH 7.5, 150 mM NaCl, 0.01% GDN

| binding [1] | binding [2] | Binder |
| --- | --- | --- |
| binds | – | Arabidopsis LCB2a-ΔN5 (protein, UniProt Q9LSZ9) MYLTAVSTYFSYGLLFAFGQLRDFFRRFIDWWFTSNLQGYAPICLGHEDFYIRRLYHRIQDCFERPISSAPDAWFDVVERYSNDNNKTLKRTTKTSRCLNLGSYNYLGFGSFDEYCTPRVIESLKKFSASTCSSRVDAGTTSVHAELEECVTRFVGKPAAVVFGMGYATNSAIIPVLIGKGGLIISDSLNHSSIVNGARGSGATIRVFQHNTPSHLERVLREQIAEGQPRTHRPWKKIIVVVEGIYSMEGEICHLPEVVAICKKYKAYVYLDEAHSIGAIGKTGKGICELLGVDTADVDVMMGTFTKSFGSCGGYIAGSKELIQYLKHQCPAHLYATSIPTPSAQQIISAIKVILGEDGSNRGAQKLARIRENSNFFRAELQKMGFEVLGDNDSPVMPIMLYNPAKIPAFSRECLRQKVAVVVVGFPATPLLLARARICISASHSREDLIRALKVISKVGDLSGIKYFPAEPKKIEQSKNDIKLD |
| – | binds | Arabidopsis LCB1 (protein, UniProt Q94IB8 1-482) MASNLVEMFNAALNWVTMILESPSARVVLFGVPIRGHFFVEGLLGVVIIILLTRKSYKPPKRPLTEQEIDELCDEWVPEPLIPPITEDMKHEPPVLESAAGPHTTVNGKDVVNFASANYLGLIGHEKLLESCTSALEKYGVGSCGPRGFYGTIDVHLDCETRISKFLGTPDSILYSYGLSTMFSTIPCFCKKGDVIVADEGVHWGIQNGLQLSRSTIVYFKHNDMESLRITLEKIMTKYKRSKNLRRYIVAEAVYQNSGQIAPLDEIVKLKEKYRFRVILDESNSFGVLGRSGRGLAEHHSVPIEKIDVVTAAMGHALATEGGFCTGNARIIDYQRLSSSGYVFSASLPPYLASAAITAIDVIDQNPDMLVKLKQNVALLWKGLSDIKGMSLTSNRESPIVFLKLEKSSGSAKDDLLLLEKMADRALKEDSLLVVSSKRSFLDKCRLPVGIKLYVSAGHSESDLLKASESLKRLASELLLKS |
